Test results from PMC9440223.
These are yes or no findings as the source states them, for the method shown. Binding seen in cells or lysates may run through a third protein. Here binding means that the protein was enriched with, or labelled near, the bait; the list need not be complete. Where a sequence is shown, tags or fusion partners need not be part of it.

Biological target: T1, Recombinant Flag-tagged (3xF)-KCTD9 (human) (UniProt Q7L273)
T1 sequence: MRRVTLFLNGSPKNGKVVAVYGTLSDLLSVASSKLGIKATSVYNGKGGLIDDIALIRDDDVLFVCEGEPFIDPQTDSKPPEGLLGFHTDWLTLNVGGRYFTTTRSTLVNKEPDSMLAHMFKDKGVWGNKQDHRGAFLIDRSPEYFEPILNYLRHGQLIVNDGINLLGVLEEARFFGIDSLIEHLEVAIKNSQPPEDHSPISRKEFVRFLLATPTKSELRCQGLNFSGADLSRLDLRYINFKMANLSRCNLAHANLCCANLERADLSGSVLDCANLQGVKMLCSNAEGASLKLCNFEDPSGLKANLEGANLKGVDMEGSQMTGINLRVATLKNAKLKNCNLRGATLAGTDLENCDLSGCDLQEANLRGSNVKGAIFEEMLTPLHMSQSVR
Assay: affinity purification with mass spectrometry; 3xF-KCTD9 immunoprecipitated with Flag antibody from HCT-116 cells, control IgG beside it; Coomassie-stained SDS-PAGE bands identified by mass spectrometry

binding: binds
B1: ZNT9 (Zinc Transporter 9) (protein, UniProt Q6PML9 68-568)
chain: STNVQKEGQGSQTLRVEKVPSFETAEGIGTELKAPLKQEPLQVRVKAVLKKREYGSKYTQNNFITGVRAINEFCLKSSDLEQLRKIRRRSPHEDTESFTVYLRSDVEAKSLEVWGSPEALAREKKLRKEAEIEYRERLFRNQKILREYRDFLGNTKPRSRTASVFFKGPGKVVMVAICINGLNCFFKFLAWIYTGSASMFSEAIHSLSDTCNQGLLALGISKSVQTPDPSHPYGFSNMRYISSLISGVGIFMMGAGLSWYHGVMGLLHPQPIESLLWAYCILAGSLVSEGATLLVAVNELRRNARAKGMSFYKYVMESRDPSTNVILLEDTAAVLGVIIAATCMGLTSITGNPLYDSLGSLGVGTLLGMVSAFLIYTNTEALLGRSIQPEQVQRLTELLENDPSVRAIHDVKATDLGLGKVRFKAEVDFDGRVVTRSYLEKQDFDQMLQEIQEVKTPEELETFMLKHGENIIDTLGAEVDRLEKELKKRNPEVRHVDLEIL
